Binding data for two substances are collected here from US7338929.

Sequences of proteins named here, by UniProt entry; tags and fusion partners are left off. A change or cut given only in a name is not applied to a line headed by its entry. A line that says so, or that is headed by a name, gives the form on record, which may keep a tag or linker. Residues count along the entry.
IL-13 (P35225, residues 33-146): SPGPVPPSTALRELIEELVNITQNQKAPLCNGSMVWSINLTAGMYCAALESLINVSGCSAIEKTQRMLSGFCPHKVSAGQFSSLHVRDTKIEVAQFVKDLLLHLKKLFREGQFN
IL-13.E13K (P35225, form named): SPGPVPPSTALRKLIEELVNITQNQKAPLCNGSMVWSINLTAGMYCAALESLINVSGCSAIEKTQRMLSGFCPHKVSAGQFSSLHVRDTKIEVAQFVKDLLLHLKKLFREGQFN

Assay [1] concerns the target T1, IL-13Rα2 (interleukin 13 receptor subunit alpha 2), full length, expressed on transfected cells (human) (UniProt Q14627).
T1 sequence: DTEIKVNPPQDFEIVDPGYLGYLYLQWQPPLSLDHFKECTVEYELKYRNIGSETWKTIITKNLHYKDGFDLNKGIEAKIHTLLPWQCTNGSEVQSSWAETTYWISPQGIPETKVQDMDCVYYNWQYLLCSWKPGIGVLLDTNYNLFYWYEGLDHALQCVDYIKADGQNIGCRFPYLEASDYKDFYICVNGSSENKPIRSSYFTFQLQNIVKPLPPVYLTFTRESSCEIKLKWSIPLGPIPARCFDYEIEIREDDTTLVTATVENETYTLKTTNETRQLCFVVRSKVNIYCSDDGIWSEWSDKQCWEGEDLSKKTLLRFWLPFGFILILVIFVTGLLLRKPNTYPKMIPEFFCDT
The experiment in a line: binding of 125I-labeled IL-13 to CHO cells transfected with IL-13Rα2.

For assay [2], the target named is T1, IL-13Rα2 (interleukin 13 receptor subunit alpha 2), full length, expressed on transfected cells (human). Kind of assay: displacement of 125I-labeled IL-13 from CHO cells transfected with IL-13Rα2. In general terms: In a radioligand displacement assay an active substance lowers the binding of a labelled ligand.

Results are given in words; binding and its absence hold for the method and conditions named. Some results given as binding are weak or reduced against the parent protein; the word gives no strength.

“IL-13 (from UniProt P35225 33-146) (ligand)”: the binding result in assay [1] is listed as “binds”. Consider “IL-13.E13K (from UniProt P35225 33-146) (ligand)”, for which the binding result in assay [2] is “binds”.
